# Results published in article PMC12370185.
# The other results are listed elsewhere or left out. At the low end of the ranking, values are background and their order means little.
# Tested on: OCT4 + histone octamer
# Experiment: Pioneer-seq (competitive nucleosome EMSA with sequencing)
# Conditions: 10 mM Tris-Cl pH 7.5, 50 mM NaCl, 1 mM DTT, 0.25 mg/ml BSA, 2 mM MgCl2, 0.025% Nonidet P-40, 5% glycerol; 28 nM nucleosome library; 10 min on ice then 30 min …; high values mean tight binding; double strand, one strand shown
row,Sequence,binding signal (log2 relative supershift)
1,GATGGACCCTATACGCGGCGATACCACAAAAAGCACAGTTTCATAGGTCAGTTTAATTCTATAGCAGTCTTTTTTGTCAGCATAGCTGGCGATTCCATCTGTTTTAATTTAAGATTCACCCCAGCCATGCCTCTGTAGCAGGTGACACGTGCACACACACACACACCCCCACACCCACACACTGTTTCCTTATGTAACATACATGATGTATGCCAGTCGGATAGTGTTCC,-0.71
2,GATGGACCCTATACGCGGCAGACCAGAACTGAATGAAGTGAAAACATTTTCAAATGCAAGTGGCAGGCAAACTGCCCCACCCTATCCTGGAAGACAATACAAAGAGGGATGGGGGAGAGAAGAAAATAAGTGATTCTCCTACACACCCAGCCCATGCCATGCTAATCCCTTTTTGAGGACCACTGGTTTTAAACAAACTCTCTTTTGCTGTGCCAGTCGGATAGTGTTCC,-0.114
3,GATGGACCCTATACGCGGCGCACTGTAGCTGTCGACTTTGTTTCAGACACCAGCCTTCCCCCACACTTCTGCATGACCCAGGTCACTATGAGACACCCAGACGTGTTGATGACAGTGACATTTGTCCTAGAGTGACCACACTGATCCTTTCTAGCACTGTGAAGAGTGTGCAGCTTCCTCTGAACCAAGGTTTCCAAAAGGTTTTGATATTGCCAGTCGGATAGTGTTCC,-0.61
4,GATGGACCCTATACGCGGCTGTGTGACTCAGCAGAGACAGCCATAATCTCCCTGGGACTATCACTCCATTGGACTGGGAACCACACCACCATCCCCCACAGCAGCTGCAGCAAGCCCCGCCCAAGATGAGGCTGAGCTCAGACAGGCCTATCCCTGCCCCAACCTGCTGGTCTTTCTCTATCCACCCTGGTAGCCAAAGGAAAAGGTCATTGCCAGTCGGATAGTGTTCC,-0.719
